Assay results as given in patent US9233086B2, “Inhibition of WDR5 interaction with its binding partners” (THE REGENTS OF THE UNIVERSITY OF MICHIGAN, priority 2010, dated 2016).
Not every detail of the peptide structures is certain; ends, links or a residue may be inferred. Where a SMILES comes first, the peptide text is derived from it.

Molecular target: WDR5 (Homo sapiens (Human), UniProt P61964)
Assay: FP based competitive binding assay to WDR5
Method: Another aspect of the invention is development of a Fluorescent Polarization (FP) based competitive binding assay. […] Next, the millipolarization (mP) values were measured at different time points in order to determine equilibrium duration and stability.
Accordingly, the optimal protein concentrations for the competitive assay was investigated.
All the FP based experiments were performed in MICROFLUOR® 2 Black, “U” Bottom, 96-well Microtiter Plates (ThermoSci.) and FP was measured as mP units in a microplate reader (Tecan Ultra) with excitation at 485 nm and emission at 530 nm. The Kd of the tracers and the IC50 value of the inhibitors were calculated using GraphPad Prism 4 software.
The binding affinities of the synthetic peptides shown in the study were measured using this competitive binding assay. A pre-incubated complex solution of WDR5Δ23 and the tracer in 120 μl assay buffer were added to dilutions of the test compound in 5 μl DMSO, giving final concentrations of WDR5Δ23 and the tracer of 4 nM and 0.6 nM, respectively. […] The plates were incubated with shaking at room temperature. The mP values were measured after five hours of incubation and Ki values were calculated using the equation described previously(31).

SMILES	binding to WDR5 (in words)
CC[C@H](NC(=O)[C@H](CCCNC(=N)N)NC(=O)[C@H](C)NC(C)=O)C(N)=O [ARAbu]	binds strongly to WDR5
CC(=O)N[C@H](C(=O)N[C@@H](CCCNC(=N)N)C(=O)N[C@@H](C)C(N)=O)C(C)C [VRA] (Ac-Val-Arg-Ala-NH2)	weaker affinity than ARAbu
